Reference: publication doi:10.1101/625483
Results are given in words; binding and its absence hold for the method and conditions named. Binding seen in cells or lysates may run through a third protein. Some binding calls cover weakened binding; strength is not graded here.

Amino acid sequences for entries named in this document (tags omitted). Residues count along the entry.
UniProt Q15116, residues 25-288: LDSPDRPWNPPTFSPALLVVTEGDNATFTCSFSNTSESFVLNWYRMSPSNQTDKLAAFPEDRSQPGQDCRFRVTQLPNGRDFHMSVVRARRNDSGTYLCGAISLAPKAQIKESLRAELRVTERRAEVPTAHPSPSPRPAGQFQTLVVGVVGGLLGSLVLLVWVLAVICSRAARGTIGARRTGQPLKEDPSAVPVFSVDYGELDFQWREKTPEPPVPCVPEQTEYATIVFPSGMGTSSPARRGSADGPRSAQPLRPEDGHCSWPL
UniProt P06730: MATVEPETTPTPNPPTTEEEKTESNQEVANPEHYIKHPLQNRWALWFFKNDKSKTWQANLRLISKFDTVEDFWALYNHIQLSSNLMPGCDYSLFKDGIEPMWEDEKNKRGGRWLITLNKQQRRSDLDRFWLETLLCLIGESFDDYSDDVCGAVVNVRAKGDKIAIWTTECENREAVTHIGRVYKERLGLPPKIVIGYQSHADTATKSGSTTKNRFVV

Target: Programmed cell death protein 1 (PD-1), wild type, overexpressed from pcDNA3.1-Flag-PD-1 (UniProt Q15116)
Experiment: co-IP

In the case of eIF4E (from UniProt P06730 1-217), the binding was “binds”.
